Here are results for one substance from article PMC4734655.

Assay [1] deals with T1, recombinant M. tuberculosis rSerA (His-tagged, from pHis-serA) (Mycobacterium tuberculosis H37Rv) (UniProt P9WNX3).
T1 sequence: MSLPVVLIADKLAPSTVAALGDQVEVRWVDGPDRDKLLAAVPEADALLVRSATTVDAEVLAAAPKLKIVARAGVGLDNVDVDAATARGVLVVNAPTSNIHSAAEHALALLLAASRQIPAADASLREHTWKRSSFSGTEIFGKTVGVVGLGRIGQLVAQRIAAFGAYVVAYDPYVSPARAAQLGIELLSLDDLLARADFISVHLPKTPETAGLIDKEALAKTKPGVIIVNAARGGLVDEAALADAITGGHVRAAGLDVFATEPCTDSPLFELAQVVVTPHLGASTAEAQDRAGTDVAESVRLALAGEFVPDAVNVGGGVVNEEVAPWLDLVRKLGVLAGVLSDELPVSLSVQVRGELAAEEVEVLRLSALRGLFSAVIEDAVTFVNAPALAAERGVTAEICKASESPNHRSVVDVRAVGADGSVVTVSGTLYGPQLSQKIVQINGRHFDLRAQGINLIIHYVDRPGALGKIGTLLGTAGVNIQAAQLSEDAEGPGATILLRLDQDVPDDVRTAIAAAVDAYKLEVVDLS
The assay is described as follows: far-Western, overlay or dot blot; recombinant Mtb proteins separated by SDS-PAGE (12%) and transferred to nitrocellulose; incubated with recombinant human IL-8 at 5 ug/ml, 2 h, room temperature; bound IL-8 detected with anti-human IL-8 goat polyclonal IgG; both purified.

The target of assay [2] is T2, recombinant M. tuberculosis rAtsG (His-tagged, from pHis-atsG) (Mycobacterium tuberculosis H37Rv) (UniProt Q6MX51).
T2 sequence: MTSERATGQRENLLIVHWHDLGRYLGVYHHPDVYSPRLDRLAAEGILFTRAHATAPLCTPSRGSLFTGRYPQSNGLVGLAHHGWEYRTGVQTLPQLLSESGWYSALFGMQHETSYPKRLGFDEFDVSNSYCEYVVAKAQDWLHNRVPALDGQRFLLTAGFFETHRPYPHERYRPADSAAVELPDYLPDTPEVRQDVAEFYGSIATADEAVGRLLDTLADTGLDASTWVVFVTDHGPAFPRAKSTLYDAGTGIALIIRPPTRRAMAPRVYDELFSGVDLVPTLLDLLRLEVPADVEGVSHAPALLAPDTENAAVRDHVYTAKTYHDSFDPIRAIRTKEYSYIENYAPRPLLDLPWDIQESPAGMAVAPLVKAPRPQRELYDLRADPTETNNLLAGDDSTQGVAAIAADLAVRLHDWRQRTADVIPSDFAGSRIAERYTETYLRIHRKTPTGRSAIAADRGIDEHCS
The assay is described as above.

Results are given in words; binding and its absence hold for the method and conditions named. For some assays here: A result given as binding can be weak or reduced; the word gives no strength. Sequences can lack the tags named with a protein.

On to “recombinant human IL-8 (interleukin-8) (ligand)”, for which the binding entry in assay [1] is “no binding (tested: 5 μg/ml)”; in assay [2], “binds”.
